## Primary screen of a compound library

Amino acid sequences for entries named in this document (tags omitted).
UniProt E9BF75, entry or part of it: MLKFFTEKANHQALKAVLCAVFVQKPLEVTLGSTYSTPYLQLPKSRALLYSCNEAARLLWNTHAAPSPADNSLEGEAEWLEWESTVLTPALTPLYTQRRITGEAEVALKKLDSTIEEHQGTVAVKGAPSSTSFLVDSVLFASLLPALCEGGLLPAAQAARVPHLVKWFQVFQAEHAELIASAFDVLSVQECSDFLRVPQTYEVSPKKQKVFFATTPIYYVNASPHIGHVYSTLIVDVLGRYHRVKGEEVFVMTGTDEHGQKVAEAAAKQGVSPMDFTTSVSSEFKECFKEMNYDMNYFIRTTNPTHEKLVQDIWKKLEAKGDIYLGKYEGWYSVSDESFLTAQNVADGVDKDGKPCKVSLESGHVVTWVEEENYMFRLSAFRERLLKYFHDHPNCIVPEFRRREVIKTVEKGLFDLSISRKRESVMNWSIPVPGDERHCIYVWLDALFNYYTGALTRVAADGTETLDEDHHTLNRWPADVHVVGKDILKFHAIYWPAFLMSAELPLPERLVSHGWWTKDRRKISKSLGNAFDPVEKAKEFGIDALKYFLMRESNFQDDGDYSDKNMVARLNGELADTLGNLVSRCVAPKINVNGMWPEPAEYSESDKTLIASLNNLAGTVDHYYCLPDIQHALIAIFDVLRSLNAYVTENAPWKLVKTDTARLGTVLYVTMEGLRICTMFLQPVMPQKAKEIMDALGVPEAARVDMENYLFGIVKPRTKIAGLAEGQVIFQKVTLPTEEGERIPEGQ

The values are deposited in ChEMBL (CHEMBL3988442, “University of Dundee, Small-Polar-MMV Screening Library” (2021)).

Results are percentages, as filed.
How 0% and 100% were set is not recorded. Most values in the screen are low, and negative values occur.
This is an unselected part of the compounds tested.
A dash means the value is not listed here; it may have been measured.

Mtb heat-shock: 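Assay on Mycobacterium tuberculosis, filed only as a heat shock assay from Cornell; the read-out is not stated. The concentration is filed as 10 mM, unlikely as a test dose, so the dose is not known. Direction is inferred from retests: higher values go with stronger inhibition. Size under these conditions: about 69,000 compounds, about 930 of them at 50% or above in at least one test.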
LdMetRS: 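Methionyl-tRNA synthetase (putative), Leishmania donovani (UniProt E9BF75). Primary screen of methionyl-tRNA synthetase; the read-out is not stated. The test concentration is not given. Values are per cent inhibition. Of about 68,000 compounds tested this way, about 24 (0.035%) reached 50% or more in at least one test.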
Mtb growth Cornell: 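Whole-cell assay for inhibitors of Mycobacterium tuberculosis growth, labelled Cornell in the record; the read-out is not stated. The concentration is filed as 10 mM, unlikely as a test dose, so the dose is not known. The record gives no direction; compounds strong in two other growth screens of this library score well above the rest, so higher reads as stronger inhibition. About 53,000 compounds were tested under these conditions; 1.7% (about 900) showed 50% or more at least once.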

| compound | Mtb heat-shock | LdMetRS | Mtb growth Cornell |
|---|---|---|---|
| `Cc1c(CC(C#N)C(=O)Nc2cccc(O)c2)cnn1C` (configuration not stated) | -2.104 | 19.84 | 32.09 |
| `CN(C(=O)Cc1ccc(F)cc1)C1CCN(c2ccccn2)CC1` | -12.47 | 23.41 | 5.728 |
| `[H][C@]12CN(c3ncccn3)CC[C@@]1(O)CCN(S(=O)(=O)N(C)C)C2` | 7.006 | - | - |
| `CC(=O)N1CCN(c2cncc(C3CCNCC3)n2)CC1` | - | 6.383 | - |
| `Nc1ncncc1-c1noc([C@@H]2CCCN2CC2CC2)n1` | -10.18 | -3.051 | -17.25 |
| `CN(CC(O)C1CC1)C(=O)c1ccc(-c2nc(C3CC3)no2)cc1` (configuration not stated) | -6.662 | 10.31 | 27.87 |
| `CCN1CC2(CNCCN(C(=O)Nc3ccccc3)C2)CC1=O` (configuration not stated) | - | 7.222 | - |
| `COc1nn(C)c2c1CCCN(C(=O)c1cccc3cccnc13)C2` | - | -3.618 | - |
| `C[C@@H]1CN(C(=O)c2ccc[nH]2)C[C@]12CCN(CCN1CCCC1)C2=O.O=C(O)C(F)(F)F` | 22.28 | - | 14.42 |
| `Cc1nnc2n1CCN(C(C)c1nnc(-c3cccs3)o1)C2` (configuration not stated) | 0.9368 | 5.072 | 16.16 |
| `Cc1ccoc1C(=O)NCC(Cc1ccc(F)cc1)C(N)=O` (configuration not stated) | 2.609 | 17.36 | - |
| `FC(F)(F)CCc1ccnc(NC2CCOC2)n1` (configuration not stated) | -22.65 | 5.245 | -24.43 |
| `CC(C)NC(=O)N1CCc2ncnc(-c3ccncc3)c2CC1.O=C(O)C(F)(F)F` | 36.54 | - | 7.799 |
| `CC(C)N(Cc1ccccc1)Cc1csc(-c2ncccn2)n1` | -6.325 | 7.971 | 6.187 |
| `CC(C)OCCCNC(=O)CN1C=Nc2ccccc2S1(=O)=O` | -14.88 | 16.57 | -12.81 |
| `COc1ccc(CC(=O)N2CC[C@@]3(O)CCNC[C@H]3C2)c(OC)c1` | - | 5.882 | - |
| `CCOCCN1CCN(CCCS(C)(=O)=O)CC1C` (configuration not stated) | -21.92 | 5.028 | - |
| `CCC1CN(CC(=O)Nc2sccc2C#N)CCO1` (configuration not stated) | -8.792 | 15.31 | - |
| `COCC1CC2(CCN(Cc3cccc(C#N)c3)CC2)CN1C(C)C` (configuration not stated) | - | -4.575 | - |
| `Cc1ccoc1C(=O)N1CC[C@H]2C[C@H](c3nnc(C4CC4)o3)O[C@@H]2C1` | - | 15.5 | - |
| `Cc1nc(CN(C)C2CCN(CCc3cccs3)C2)no1` (configuration not stated) | -3.221 | 8.197 | - |
| `Cn1cc(CN2CCn3c(CNC(=O)c4cccn4C)cnc3C2)cn1` | - | 12.97 | - |
| `[H][C@@]12CN(C3CCOCC3)C[C@]1([H])OCC(=O)N2Cc1ccncc1` | -31.19 | - | 27.6 |
| `O=C(c1ccncc1)N1CCC(c2nc(O)cc(-c3cccnc3)n2)C1` (configuration not stated) | 0.3529 | 11.5 | - |
| `CC(C)(C)c1ncc(C(=O)NCCNc2ncccn2)s1` | -3.77 | 17.04 | -2.349 |
| `Cn1nc(C(=O)NCc2ccc(Cl)cc2)c2c1CCS(=O)(=O)C2` | 3.148 | -36.93 | - |
| `COc1cccc(Cl)c1-c1cc(CN)ccc1F` | 4.188 | 16.38 | 8.191 |
| `CCC(=O)Nc1ccc2c(c1)C1(CCOCC1)CN2CCOC.O=C(O)C(F)(F)F` | 46.17 | - | 6.665 |
| `O=C(CCNCc1cc(O)c2cc(F)ccc2n1)N1CCCC1` | 3.102 | 15.47 | 15.28 |
| `CC(=O)N1CCC(c2cnc(-c3c(C)n[nH]c3C)cn2)CC1` | -0.08814 | 5.145 | -44.27 |
| `[H][C@@]12OCCN(CCN(CC)CC)[C@@]1([H])CC[C@@H]2OCc1ccccn1` | -27.86 | - | 21.76 |
| `Cc1ccn(-c2ccccc2NCc2ccccn2)n1` | 31.75 | 5.419 | 16.5 |
| `CC(C)(C)C(=O)NCC(=O)NCC1CCCS1` (configuration not stated) | -3.141 | 8.696 | - |
| `CC(=O)N1CCC(C(=O)N2CCC(=Cc3cccc(F)c3)CC2)CC1` | 7.724 | 6.529 | - |
| `COCc1nn(CC2CC2)c2c1CN(C(=O)c1ccno1)CC2` | -26.65 | 12.8 | 25.28 |
| `Cc1cc(N2CCCC(c3nncn3C3CC3)C2)ncn1` (configuration not stated) | -14.17 | 13.45 | 6.532 |
| `O=C(CSC1=NS(=O)(=O)c2cc(F)ccc2N1)c1ccc(Cl)cc1` | 25.63 | 15.69 | 14.03 |
| `N#Cc1nc(COc2ccc3c(c2)OCO3)oc1NC1CC1` | 9.08 | 6.97 | 0.1825 |
| `CSc1nc2ccsc2c(=O)n1CC(=O)NC1CCCCC1` | 9.495 | 28.73 | - |
| `Cn1cc(Cl)cc1C(=O)N1CCCN(Cc2cccs2)CC1` | 17.06 | 18.37 | - |
| `O=C(NC1CC1)N1CCCC2(CCCCN2)C1.O=C(O)C(F)(F)F` (configuration not stated) | 3.901 | - | - |
| `COc1cccc2c1OCC(C(=O)NCCc1nc3c(s1)CCC3)C2` (configuration not stated) | -12.22 | 16.91 | 25.36 |
| `COc1ccccc1CN1CCC2(CCC(C(=O)N(C)C)O2)CC1` (configuration not stated) | 9.581 | 10.64 | -12.87 |
| `Cn1cc(CCCN2CCN(Cc3cccc(O)c3)CC2)cn1` | 4.711 | 0.8174 | -17.11 |

4 of the entries, repeated:

compound,Mtb heat-shock,LdMetRS,Mtb growth Cornell
C[C@@H]1CN(C(=O)c2ccc[nH]2)C[C@]12CCN(CCN1CCCC1)C2=O.O=C(O)C(F)(F)F,22.28,-,14.42
CC(C)N(Cc1ccccc1)Cc1csc(-c2ncccn2)n1,-6.325,7.971,6.187
CCOCCN1CCN(CCCS(C)(=O)=O)CC1C (configuration not stated),-21.92,5.028,-
O=C(c1ccncc1)N1CCC(c2nc(O)cc(-c3cccnc3)n2)C1 (configuration not stated),0.3529,11.5,-